Assay results published in PubChem BioAssay AID200 (DTP/NCI, 2004).
The list does not hold the whole screen: it gathers tests that were run many times, whatever their T/C, doses with no T/C, and many T/C values between a quarter and a half above the control. Other doses and runs of a compound stand elsewhere. T/C gives the treated animals as a percentage of the vehicle group. Some doses have a count of surviving animals in place of a T/C: the source holds a T/C of zero for them, seemingly a mark for toxic or unscored doses. Some doses without a T/C left all or most animals alive at the check, yet need not have been tolerated: the source hardly ever lists a survival T/C far under the control, and the zero likely stands for such cases as well. Counts of survivors are from the toxicity check (mostly the fifth day) where no day follows; animals may have died later. Schedule codes are those of the source, read here as Q, the interval in days (D) or hours (H), X, the number of doses. Some doses were run more than once; the values are given in rising order. For survival time, this PubChem deposit counts one and a half times the control or more as active, and values a quarter to a half above the control carry no call in these data; other NCI protocols may use other cut-offs. Some T/C values carry the count of animals alive at the toxicity check (mostly the fifth day); where none is given, no animal had died by that day.

Tested on: B6C3F1 mice, B16 melanoma ip, median survival T/C
Test: NCI In Vivo Anticancer Drug Screen. Data for tumor model B16 Melanoma (intraperitoneal) in B6C3F1 mice
Conditions: T/C endpoint: median survival time, higher T/C = longer survival
How it was run: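 Antitumor effect was judged in mice with transplanted tumors by dividing the treated group's survival measure by that of vehicle controls.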

[1] = dose: 50.0 mg/kg/injection, schedule: Q01DX009 (ip), vehicle: saline with Tween-80
[2] = dose: 100.0 mg/kg/injection, schedule: Q01DX009 (ip), vehicle: saline with Tween-80
[3] = dose: 200.0 mg/kg/injection, schedule: Q01DX009 (ip), vehicle: saline with Tween-80
[4] = dose: 100.0 mg/kg/injection, schedule: Q01DX009 (ip), vehicle: Klucel (hydroxypropylcellulose) (HPC)
[5] = dose: 1.0 mg/kg/injection, schedule: Q01DX009 (ip), vehicle: saline + alcohol
[6] = dose: 400.0 mg/kg/injection, schedule: Q01DX009 (ip), vehicle: saline with Tween-80

CCCCNP1(NCCCC)=NP(NCCCC)(NCCCC)=NP(NCCCC)(NCCCC)=NP(NCCCC)(NCCCC)=N1
T/C (dose: 25.0 mg/kg/injection, schedule: Q01DX009 (ip), vehicle: saline with Tween-80): 128 % of control | T/C [1]: 142 % of control | survivor count [1]: 10 of 10 | survivor count [2]: 1 of 10, 5 of 10, 10 of 10 | survivor count [3]: 2 of 10

CC(C)(C)OC(=O)NC(Cc1ccc(OCc2ccccc2)cc1)C(=O)ON1C(=O)CCC1=O (stereo unspecified)
survivor count [4]: 10 of 10 | survivor count (dose: 200.0 mg/kg/injection, schedule: Q01DX009 (ip), vehicle: Klucel (hydroxypropylcellulose) (HPC)): 10 of 10 | survivor count (dose: 400.0 mg/kg/injection, schedule: Q01DX009 (ip), vehicle: Klucel (hydroxypropylcellulose) (HPC)): 3 of 10

Cn1nnc2c(C(N)=O)ncn2c1=O
T/C (dose: 25.0 mg/kg/injection, schedule: Q01DX009 (ip), vehicle: saline): 139 % of control | T/C (dose: 25.0 mg/kg/injection, schedule: Q01DX009 (ip), vehicle: suspension in saline): 125 % of control | T/C (dose: 50.0 mg/kg/injection, schedule: Q01DX009 (ip), vehicle: saline): 139 % of control | survivor count (dose: 200.0 mg/kg/injection, schedule: Q01DX009 (ip), vehicle: saline): 10 of 10 | survivor count (dose: 200.0 mg/kg/injection, schedule: Q01DX009 (ip), vehicle: suspension in saline): 10 of 10 | survivor count (dose: 400.0 mg/kg/injection, schedule: Q01DX009 (ip), vehicle: saline): 9 of 10

CN(C)CCN1C(=O)c2cccc3cc([N+](=O)[O-])cc(c23)C1=O
T/C (dose: 3.13 mg/kg/injection, schedule: Q01DX009 (ip), vehicle: saline with Tween-80): 144 % of control [9 of 10 alive] | T/C (dose: 6.0 mg/kg/injection, schedule: Q01DX009 (ip), vehicle: saline with Tween-80): 140 % of control | T/C (dose: 6.25 mg/kg/injection, schedule: Q01DX009 (ip), vehicle: saline with Tween-80): 139 % of control | survivor count (dose: 12.5 mg/kg/injection, schedule: Q01DX009 (ip), vehicle: saline with Tween-80): 5 of 10

CC(=O)O[C@H]1C(=O)[C@@]2(C)C(C(OC(=O)c3ccccc3)[C@]3(O)CC(OC(=O)[C@H](OC(=O)CCC(=O)O)C(NC(=O)c4ccccc4)c4ccccc4)C(C)=C1C3(C)C)C1(OC(C)=O)COC1C[C@@H]2OC(=O)CCC(=O)O (stereo partly specified)
T/C (dose: 11.0 mg/kg/injection, schedule: Q01DX009 (ip), vehicle: water): 149 % of control

COc1ccc(Cl)[n+]([O-])n1
survivor count [4]: 3 of 10

COc1cc2cc(c1Cl)N1CCC(C)(O)C(=O)NC(C)C(=O)OC(CC1=O)C1(C)OC1C(C)C1CC(O)(NC(=O)O1)C(OC)/C=C\C=C(\C)C2OC (stereo unspecified)
T/C (dose: 4.0 micrograms/kg/injection, schedule: Q01DX009 (ip), vehicle: distilled water + alcohol): 130 % of control

CCCC(=O)O.CCCC(=O)O.CCCC(=O)O.CCCC(=O)O.[Rh].[Rh]
survivor count [5]: 9 of 10

COc1ccc(CC2C(=O)NC(C)C(=O)N(C)C3Cc4ccc(cc4)Oc4cc(ccc4O)CC(C(=O)NC(C)C(=O)NC(C)C(=O)N2C)N(C)C3=O)cc1 (stereo unspecified)
T/C (dose: 1.0 mg/kg/injection, schedule: Q01DX009 (ip), vehicle: other): 135 % of control | T/C (dose: 1.0 mg/kg/injection, schedule: Q01DX009 (ip), vehicle: saline with Tween-80): 138 % of control | T/C (dose: 2.0 mg/kg/injection, schedule: Q01DX005 (ip), vehicle: saline with Tween-80): 135 % of control | T/C (dose: 2.0 mg/kg/injection, schedule: Q01DX009 (ip), vehicle: other): 143 % of control | T/C (dose: 2.0 mg/kg/injection, schedule: Q01DX009 (ip), vehicle: saline + Tween-80 + alcohol): 145 % of control | survivor count (dose: 2.0 mg/kg/injection, schedule: Q01DX009 (ip), vehicle: saline with Tween-80): 5 of 10 | T/C (dose: 4.0 mg/kg/injection, schedule: Q01DX009 (ip), vehicle: saline + Tween-80 + alcohol): 135 % of control | survivor count (dose: 4.0 mg/kg/injection, schedule: Q01DX009 (ip), vehicle: saline with Tween-80): 0 of 10 | T/C (dose: 8.0 mg/kg/injection, schedule: Q01DX005 (ip), vehicle: saline with Tween-80): 129 % of control [9 of 10 alive] | T/C (dose: 8.0 mg/kg/injection, schedule: Q01DX009 (ip), vehicle: saline + Tween-80 + alcohol): 146 % of control | T/C (dose: 8.0 mg/kg/injection, schedule: Q01DX009 (ip), vehicle: saline with Tween-80): 145 % of control [9 of 10 alive] | survivor count (dose: 16.0 mg/kg/injection, schedule: Q01DX009 (ip), vehicle: other): 0 of 10 | survivor count (dose: 16.0 mg/kg/injection, schedule: Q01DX009 (ip), vehicle: saline + Tween-80 + alcohol): 6 of 10

CC(=O)OCC1OC([S-])C(OC(C)=O)C(OC(C)=O)C1OC(C)=O.CC[PH+](CC)CC.CC[PH+](CC)CC.[Au].[Au] (stereo unspecified)
T/C (dose: 1.25 mg/kg/injection, schedule: Q01DX009 (ip), vehicle: Klucel (hydroxypropylcellulose) (HPC)): 140 % of control | survivor count (dose: 10.0 mg/kg/injection, schedule: Q01DX009 (ip), vehicle: Klucel (hydroxypropylcellulose) (HPC)): 5 of 10 | survivor count (dose: 20.0 mg/kg/injection, schedule: Q01DX009 (ip), vehicle: Klucel (hydroxypropylcellulose) (HPC)): 2 of 10

CCCCC(=O)OCC1OC(n2cnc3c(=S)nc[nH]c32)C(OC(=O)CCCC)C1OC(=O)CCCC (stereo unspecified)
survivor count [2]: 10 of 10

COc1cc2cc(c1Cl)N(C)C(=O)CC(OC(=O)C(C)N(C)C(=O)C(C)C)C1(C)OC1C(C)C1CC(O)(NC(=O)O1)C(OC)/C=C/C=C(C)C2OC (stereo unspecified)
T/C (dose: 1.0 micrograms/kg/injection, schedule: Q01DX009 (ip), vehicle: Klucel (hydroxypropylcellulose) (HPC)): 133 % of control | T/C (dose: 2.0 micrograms/kg/injection, schedule: Q01DX009 (ip), vehicle: Klucel (hydroxypropylcellulose) (HPC)): 140 % of control | survivor count (dose: 32.0 micrograms/kg/injection, schedule: Q01DX009 (ip), vehicle: Klucel (hydroxypropylcellulose) (HPC)): 9 of 10 | survivor count (dose: 64.0 micrograms/kg/injection, schedule: Q01DX009 (ip), vehicle: Klucel (hydroxypropylcellulose) (HPC)): 5 of 10 and 10 of 10

NC(=O)/C=C/c1c[nH]c2nccnc12
survivor count (dose: 50.0 mg/kg/injection, schedule: Q01DX009 (ip), vehicle: water): 3 of 10

O=c1[nH]c(=O)n(C2CC(O)C(CO)O2)cc1I (stereo unspecified)
T/C [1]: 128 % of control | T/C [2]: 128 [9 of 10 alive] and 138 % of control | survivor count [3]: 9 of 10 | survivor count [6]: 7 of 10 | survivor count (dose: 800.0 mg/kg/injection, schedule: Q01DX009 (ip), vehicle: saline with Tween-80): 7 of 10

COC1C(O)CC(OC2CC(Oc3cc4cc5c(c(O)c4c(O)c3C)C(=O)[C@@H](OC3CC(OC4CC(OC6CC(C)(O)C(OC(C)=O)C(C)O6)C(O)C(C)O4)C(O)C(C)O3)[C@H]([C@H](OC)C(=O)[C@@H](O)[C@@H](C)O)C5)OC(C)C2OC(C)=O)OC1C (stereo partly specified)
T/C (dose: 0.02 mg/kg/injection, schedule: Q01DX009 (ip), vehicle: Klucel (hydroxypropylcellulose) (HPC)): 141 % of control | survivor count (dose: 0.32 mg/kg/injection, schedule: Q01DX009 (ip), vehicle: Klucel (hydroxypropylcellulose) (HPC)): 4 of 10

COc1cccc(C2NC(=O)c3c(n[nH]c3N)S2)c1O (stereo unspecified)
survivor count [6]: 2 of 10

COC(=O)[C@@]12OC[C@]34[C@H]([C@@H](O)[C@@H]1O)[C@@]1(C)CC(=O)C(O)=C(C)[C@@H]1C[C@H]3OC(=O)[C@H](OC(=O)/C=C(/C)C(C)(C)O)[C@@H]24
T/C [5]: 128 % of control | T/C (dose: 2.0 mg/kg/injection, schedule: Q01DX009 (ip), vehicle: saline + alcohol): 131 and 132 % of control | T/C (dose: 4.0 mg/kg/injection, schedule: Q01DX009 (ip), vehicle: saline + alcohol): 131 and 137 % of control | T/C (dose: 8.0 mg/kg/injection, schedule: Q01DX009 (ip), vehicle: saline + alcohol): 148 % of control

c1ccc2c3c(c4c(c2c1)CN(C1CCCCC1)CO4)OCN(C1CCCCC1)C3
survivor count (dose: 12.5 mg/kg/injection, schedule: Q01DX009 (ip), vehicle: other): 0 of 10 | survivor count (dose: 25.0 mg/kg/injection, schedule: Q01DX009 (ip), vehicle: other): 0 of 10 | survivor count (dose: 50.0 mg/kg/injection, schedule: Q01DX009 (ip), vehicle: other): 0 of 10

O=C1C2CC(CN3CCCCC23)C2CCCCN12 (stereo unspecified)
survivor count (dose: 300.0 mg/kg/injection, schedule: Q01DX009 (ip), vehicle: saline): 5 of 10

CN(C)P(=O)(Oc1ccccc1)N(C)C
survivor count [6]: 8 of 10 and 9 of 10
